{
  "source": "paper PMC7819943",
  "about": "“Rice protein-binding microarrays: a tool to detect cis-acting elements near promoter regions in rice”",
  "note": "The other results are listed elsewhere or left out.",
  "data": [
    {"biological_target": "T1, OsSMF1 (Oryza sativa, UniProt Q6ZLB0 1-436)", "T1 sequence": "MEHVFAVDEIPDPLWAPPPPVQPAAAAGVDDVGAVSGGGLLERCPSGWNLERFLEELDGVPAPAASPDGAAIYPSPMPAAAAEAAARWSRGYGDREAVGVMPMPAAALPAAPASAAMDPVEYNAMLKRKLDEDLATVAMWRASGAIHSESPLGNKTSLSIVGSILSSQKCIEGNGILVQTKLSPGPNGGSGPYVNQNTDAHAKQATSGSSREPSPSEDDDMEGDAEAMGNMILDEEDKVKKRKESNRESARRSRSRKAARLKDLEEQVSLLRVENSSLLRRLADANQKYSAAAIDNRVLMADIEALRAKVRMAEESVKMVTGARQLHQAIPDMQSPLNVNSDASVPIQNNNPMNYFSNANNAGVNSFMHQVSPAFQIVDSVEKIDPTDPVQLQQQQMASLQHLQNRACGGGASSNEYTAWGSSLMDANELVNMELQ", "test": "protein-binding microarray (RPBM); PBS, 2% BSA, 51.3 ng/ul salmon testes DNA, 50 uM zinc acetate, 200 nM TF, 25 C, 1 h; high values mean tight binding", "conditions": "protein: recombinant; tags: N-terminal polyhistidine and DsRed monomer fusion (pET32a); chain copies: 2; label: CyDye5-dUTP incorporated in the synthesized complementary strand; 3' TTTTT single-stranded linker to array surface; dsDNA, one strand shown", "summary_of_the_method": "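Binding signal here means per-feature fluorescence intensity in arbitrary units. The values were read on an Axon 4000B scanner after a custom Agilent array, double-stranded by primer extension with Cy5-dUTP, was incubated with 200 nM protein at 25 °C for 1 h in PBS with 2% BSA, salmon testes DNA and 50 µM zinc acetate, then washed. The proteins were transcription factors with an N-terminal polyhistidine tag and DsRed, expressed in E. coli BL21-CodonPlus and purified on Ni–NTA.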", "values": [
      {"sequence": "GTAACTTCAAGCTTGTTGAGTGAGTTGTACTGTTACTGTTCGGAGTCACCTAGTGCAG", "binding signal": "3510 fluorescence intensity (a.u.)"},
      {"sequence": "ATGTGAGTCCTATGAGCGTCACGTAGGATGAAACCGCTATCGGAGTCACCTAGTGCAG", "binding signal": "5270 fluorescence intensity (a.u.)"},
      {"sequence": "CACGACGAGCCGATTTGTGTCACAATGTCTCACATCCGAACGGAGTCACCTAGTGCAG", "binding signal": "26800 fluorescence intensity (a.u.)"},
      {"sequence": "TATCCACTCCCACCGCGCGCGCCACCTGTACAAGAGAAAACGGAGTCACCTAGTGCAG", "binding signal": "3700 fluorescence intensity (a.u.)"},
      {"sequence": "TCTTTGGACACGTGTATGAAGCATTAAATATAGATAAATACGGAGTCACCTAGTGCAG", "binding signal": "7610 fluorescence intensity (a.u.)"},
      {"sequence": "GATATACACATTGACAAGGGCAGTATGCACGTAGGTCTGGCGGAGTCACCTAGTGCAG", "binding signal": "3270 fluorescence intensity (a.u.)"},
      {"sequence": "CCGTTGATCCAAAACTGATTTAACTCGATCTCACCATACACGGAGTCACCTAGTGCAG", "binding signal": "26200 fluorescence intensity (a.u.)"},
      {"sequence": "AAACCACGGCATTTTCCTCGCTCCCTTCTCTTCTTCCTTTCGGAGTCACCTAGTGCAG", "binding signal": "3150 fluorescence intensity (a.u.)"},
      {"sequence": "TGGCGCCACCTAGGAGAGGGGTATGGTGACGAGGCGTGCGCGGAGTCACCTAGTGCAG", "binding signal": "6620 fluorescence intensity (a.u.)"},
      {"sequence": "CTTTGGAGTTTGATCCATGGGATGAGTCATATTCAACGGCCGGAGTCACCTAGTGCAG", "binding signal": "6740 fluorescence intensity (a.u.)"},
      {"sequence": "CCCCTCAGGAAGGGTGTCAACTCTCTTGTCATCATGGTTACGGAGTCACCTAGTGCAG", "binding signal": "3180 fluorescence intensity (a.u.)"},
      {"sequence": "CCCATGACATGGCACCATTACATCACTCTCTCTCTCTCGCCGGAGTCACCTAGTGCAG", "binding signal": "8330 fluorescence intensity (a.u.)"},
      {"sequence": "CTCCGTTACCGCGTGAGACCGCATGGTCTTTCGCCGCGTGCGGAGTCACCTAGTGCAG", "binding signal": "3410 fluorescence intensity (a.u.)"},
      {"sequence": "GTAGATTCAAACTTTATCCGAAATAACTGGTGGATATTTGCGGAGTCACCTAGTGCAG", "binding signal": "4140 fluorescence intensity (a.u.)"},
      {"sequence": "AGAGCCGCTCCGGTAGAGACACGTGTGCCGGAAGCAACGGCGGAGTCACCTAGTGCAG", "binding signal": "8710 fluorescence intensity (a.u.)"},
      {"sequence": "TCGAGATCCCTAAACTTGCTTTATTGTATCATCCCGGTCTCGGAGTCACCTAGTGCAG", "binding signal": "3750 fluorescence intensity (a.u.)"},
      {"sequence": "AGCCACACACGCACGCCGGCCACGATAACCCATCCTAGCACGGAGTCACCTAGTGCAG", "binding signal": "3370 fluorescence intensity (a.u.)"},
      {"sequence": "AAGTACGTATGTGTTGTAAGCGTCTACATTTGTAACGTGTCGGAGTCACCTAGTGCAG", "binding signal": "3770 fluorescence intensity (a.u.)"},
      {"sequence": "TGTTTCTGCTGGGATGGTTCAGTGGGGTGGAATGCCAGCTCGGAGTCACCTAGTGCAG", "binding signal": "3720 fluorescence intensity (a.u.)"},
      {"sequence": "ACAGTGATTTGTATCTTTGTCAGCACTATACATGAAAATACGGAGTCACCTAGTGCAG", "binding signal": "3220 fluorescence intensity (a.u.)"},
      {"sequence": "AAATGGCTGCTGCTCGTCGCCACGTGCTCCGGGTAAACCCCGGAGTCACCTAGTGCAG", "binding signal": "6440 fluorescence intensity (a.u.)"},
      {"sequence": "ATCTCATGAGTTAACCCCGGTCAATTCATCTACTTCGACTCGGAGTCACCTAGTGCAG", "binding signal": "7310 fluorescence intensity (a.u.)"},
      {"sequence": "GGCTGTTTGAGAAGGTGATGTCACGAAGCAGGGTCTGAGGCGGAGTCACCTAGTGCAG", "binding signal": "5600 fluorescence intensity (a.u.)"},
      {"sequence": "CGATCCCTGGGCAGCGTGGTTGATTTGCCTCCACCACTGGCGGAGTCACCTAGTGCAG", "binding signal": "20400 fluorescence intensity (a.u.)"},
      {"sequence": "GGTCTCACGGGCTCACGGTGACGGATGCGATTTTATGCCACGGAGTCACCTAGTGCAG", "binding signal": "5880 fluorescence intensity (a.u.)"},
      {"sequence": "TGTCCGGTCGTTTGAAAACTAGAAATGCTTTTCTACCCGCCGGAGTCACCTAGTGCAG", "binding signal": "8800 fluorescence intensity (a.u.)"},
      {"sequence": "GCTTTGAGCCCAACTGGATGTATTGAGCCTACGTGGGCTGCGGAGTCACCTAGTGCAG", "binding signal": "3390 fluorescence intensity (a.u.)"},
      {"sequence": "CCGTCGCCGGCGGCGGATCGGCCCCACATCACCTCGGCCTCGGAGTCACCTAGTGCAG", "binding signal": "3250 fluorescence intensity (a.u.)"},
      {"sequence": "ACAACATATGGGTCCCATCTACTGACTCAACTAGTCAACCCGGAGTCACCTAGTGCAG", "binding signal": "3760 fluorescence intensity (a.u.)"},
      {"sequence": "TGGCTTCACTTGCAACGGTACAAGAACCACCATCACTTCCCGGAGTCACCTAGTGCAG", "binding signal": "40100 fluorescence intensity (a.u.)"},
      {"sequence": "AATCGGATTACATTGGACCACGGGACGTGTCAGATCTTTTCGGAGTCACCTAGTGCAG", "binding signal": "5650 fluorescence intensity (a.u.)"},
      {"sequence": "AAGATTAACTAAGATAGTTACGTGTAATTCTCTTGCGTGTCGGAGTCACCTAGTGCAG", "binding signal": "3540 fluorescence intensity (a.u.)"},
      {"sequence": "GACTTTAATGATGCTGACACCGGCTTAATTAGTATTGCGGCGGAGTCACCTAGTGCAG", "binding signal": "3420 fluorescence intensity (a.u.)"},
      {"sequence": "GTCAGAATTTGCTGCCTTGTCATCAGGATCCGCTTTGGCACGGAGTCACCTAGTGCAG", "binding signal": "9260 fluorescence intensity (a.u.)"},
      {"sequence": "TACTTTCAACTCTAACTTGAAAACTTTCAACTTTGACTTGCGGAGTCACCTAGTGCAG", "binding signal": "3860 fluorescence intensity (a.u.)"},
      {"sequence": "ATCAATGTGGCTGCCATGGTTGCCTTGCGTGGAGGCACTACGGAGTCACCTAGTGCAG", "binding signal": "3950 fluorescence intensity (a.u.)"},
      {"sequence": "AACCCAACACGGCGGCGGCTGCGGGCGGTGACAATGACCACGGAGTCACCTAGTGCAG", "binding signal": "3720 fluorescence intensity (a.u.)"},
      {"sequence": "CCGAAACAACACACAGGTCATCCGGCCGCTCTCTTCTTTGCGGAGTCACCTAGTGCAG", "binding signal": "4620 fluorescence intensity (a.u.)"},
      {"sequence": "CAGTATTAGCAGCCATCAGAAGCACCAAACAAATTTCATCCGGAGTCACCTAGTGCAG", "binding signal": "3300 fluorescence intensity (a.u.)"},
      {"sequence": "TCGGCGATCCGACACGTCGCGTTGCTCTTCGCAATCGTGTCGGAGTCACCTAGTGCAG", "binding signal": "4220 fluorescence intensity (a.u.)"},
      {"sequence": "ATACGCCGAAACATTTGCACGTAATGCCTCCGTGGCGTCGCGGAGTCACCTAGTGCAG", "binding signal": "7770 fluorescence intensity (a.u.)"},
      {"sequence": "CAAACGGGCGTGGCACATCGATCGTCCGTCCGTGTTCTTGCGGAGTCACCTAGTGCAG", "binding signal": "4030 fluorescence intensity (a.u.)"}
    ]}
  ]
}
